PubChem BioAssay AID686943, Drosophila RNAi Screening Center, 2013
In all, the deposit lists about 23,000 reagents; below is a random part of those that have a named target and a result. 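Extra replicates exist only for a retested subset of genes; insulin dose and duration not given; both raised and lowered dpERK matter.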 Reagents against one gene are numbered here. Further read-outs or replicates are left out here. The record does not give: the amount of reagent, the time to read-out.

Screen: 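Knockdowns that increase or decrease active ERK after insulin receptor stimulation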 (primary screen)
System: Drosophila S2R+ haemocyte-like cells expressing YFP-tagged ERK (Rolled)
Reagents: long dsRNA against Drosophila genes
Challenge: insulin stimulation versus unstimulated cells; dose and duration not given
Measured: 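Antibody staining for doubly phosphorylated ERK divided by ERK-YFP signal, as plate z-scores, in insulin-treated and untreated cells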
Reading the numbers: replicate 1, z-score of dpERK with insulin and replicate 2, z-score of dpERK with insulin: higher = more active ERK per ERK-YFP after insulin

With knock-down of Egm (Enigma) #1 the results were replicate 1, z-score of dpERK with insulin 0.84; replicate 2, z-score of dpERK with insulin 0.37.
Against Egm (Enigma) #2, the entry reads replicate 1, z-score of dpERK with insulin 0.54; replicate 2, z-score of dpERK with insulin 1.67.
Pfdn1 (Prefoldin 1) gave replicate 1, z-score of dpERK with insulin -0.82; replicate 2, z-score of dpERK with insulin 0.09.
For CG6083, the entry reads replicate 1, z-score of dpERK with insulin 0.23; replicate 2, z-score of dpERK with insulin -0.34.
For CecA2 (Cecropin A2) the deposit lists replicate 1, z-score of dpERK with insulin -0.13; replicate 2, z-score of dpERK with insulin -0.09.
Silencing of side-III (sidestep III) #1 came out at: replicate 1, z-score of dpERK with insulin 0.33; replicate 2, z-score of dpERK with insulin -0.45.
Knock-down of side-III (sidestep III) #2 came out at: replicate 1, z-score of dpERK with insulin 2.51; replicate 2, z-score of dpERK with insulin -3.52.
Depletion of side-III (sidestep III) #3 gave: replicate 1, z-score of dpERK with insulin 1.1; replicate 2, z-score of dpERK with insulin 1.1.
For COX6CL (Cytochrome c oxidase subunit 6C-like) the deposit lists replicate 1, z-score of dpERK with insulin -1.23; replicate 2, z-score of dpERK with insulin 1.07.
Against na (narrow abdomen), the values are replicate 1, z-score of dpERK with insulin -1.41; replicate 2, z-score of dpERK with insulin 0.22.
With knock-down of Lsp1gamma (Larval serum protein 1 gamma), the screen gave replicate 1, z-score of dpERK with insulin -0.14; replicate 2, z-score of dpERK with insulin -0.29.
Uch (Ubiquitin carboxy-terminal hydrolase) scored replicate 1, z-score of dpERK with insulin -0.44; replicate 2, z-score of dpERK with insulin 0.21.
For CG10602, the entry reads replicate 1, z-score of dpERK with insulin -0.43; replicate 2, z-score of dpERK with insulin -0.25.
M1BP (Motif 1 Binding Protein) gave replicate 1, z-score of dpERK with insulin -3.54; replicate 2, z-score of dpERK with insulin 3.97.
After knock-down of l(3)mbt (lethal (3) malignant brain tumor), the record shows replicate 1, z-score of dpERK with insulin 0.6; replicate 2, z-score of dpERK with insulin -0.65.
Against Cf2 (Chorion factor 2) the deposit lists replicate 1, z-score of dpERK with insulin -5.47; replicate 2, z-score of dpERK with insulin -3.32.
CG34229 gave replicate 1, z-score of dpERK with insulin 0.2; replicate 2, z-score of dpERK with insulin 0.14.
Knock-down of TwdlQ (TweedleQ) gave: replicate 1, z-score of dpERK with insulin -0.72; replicate 2, z-score of dpERK with insulin -2.77.
Against Ets96B, the entry reads replicate 1, z-score of dpERK with insulin -0.54; replicate 2, z-score of dpERK with insulin -0.25.
For grau (grauzone), the values are replicate 1, z-score of dpERK with insulin -0.81; replicate 2, z-score of dpERK with insulin -1.03.
Cyp313a1 (Cytochrome P450 313a1) gave replicate 1, z-score of dpERK with insulin 1.02; replicate 2, z-score of dpERK with insulin 0.53.
CG10209 scored replicate 1, z-score of dpERK with insulin -0.03; replicate 2, z-score of dpERK with insulin 0.33.
After knock-down of mtgo (miles to go) #1, the screen gave replicate 1, z-score of dpERK with insulin -0.47; replicate 2, z-score of dpERK with insulin 0.6.
mtgo (miles to go) #2 gave replicate 1, z-score of dpERK with insulin 0.99; replicate 2, z-score of dpERK with insulin -0.81.
mtgo (miles to go) #3 showed replicate 1, z-score of dpERK with insulin 1.05; replicate 2, z-score of dpERK with insulin 1.36.
With knock-down of mtgo (miles to go) #4, the screen gave replicate 1, z-score of dpERK with insulin -1.02; replicate 2, z-score of dpERK with insulin -0.2.
After knock-down of mtgo (miles to go) #5, the screen gave replicate 1, z-score of dpERK with insulin 0.86; replicate 2, z-score of dpERK with insulin 0.36.
With knock-down of Stat92E, the screen gave replicate 1, z-score of dpERK with insulin 2.21; replicate 2, z-score of dpERK with insulin 1.95.
With knock-down of Or85d (Odorant receptor 85d), the screen gave replicate 1, z-score of dpERK with insulin 0.78; replicate 2, z-score of dpERK with insulin -0.15.
Against Fer3 (48 related 3), the entry reads replicate 1, z-score of dpERK with insulin 0.29; replicate 2, z-score of dpERK with insulin 0.22.
Silencing of Vps2 (Vacuolar protein sorting 2) gave: replicate 1, z-score of dpERK with insulin -1.48; replicate 2, z-score of dpERK with insulin -0.14.
